From PMC4741485 come the findings set out here.

Chains of the proteins cited; added tags and fusions are not shown.
UniProt Q00987: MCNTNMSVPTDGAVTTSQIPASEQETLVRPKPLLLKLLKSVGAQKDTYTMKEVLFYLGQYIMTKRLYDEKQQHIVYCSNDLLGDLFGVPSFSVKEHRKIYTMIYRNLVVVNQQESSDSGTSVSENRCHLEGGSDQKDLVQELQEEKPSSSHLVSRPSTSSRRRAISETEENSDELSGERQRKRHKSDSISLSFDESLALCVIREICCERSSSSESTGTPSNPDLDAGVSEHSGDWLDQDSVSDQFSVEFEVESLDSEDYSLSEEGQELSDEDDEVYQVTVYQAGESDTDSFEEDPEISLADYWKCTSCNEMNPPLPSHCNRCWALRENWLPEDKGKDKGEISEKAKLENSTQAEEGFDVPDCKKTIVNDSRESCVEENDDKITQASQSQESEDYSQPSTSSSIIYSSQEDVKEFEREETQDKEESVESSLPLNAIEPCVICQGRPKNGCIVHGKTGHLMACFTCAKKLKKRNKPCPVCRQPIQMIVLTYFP

No constants are given. Whether binding was seen depends on the method and setting. Binding seen in cells or lysates may run through a third protein. Some results given as binding are weak or reduced against the parent protein; the word gives no strength. Tags and fused reporters may be left off the sequences shown.

The first experiment addresses T1, GST-STIP (human) (UniProt Q9UBB9).
T1 sequence: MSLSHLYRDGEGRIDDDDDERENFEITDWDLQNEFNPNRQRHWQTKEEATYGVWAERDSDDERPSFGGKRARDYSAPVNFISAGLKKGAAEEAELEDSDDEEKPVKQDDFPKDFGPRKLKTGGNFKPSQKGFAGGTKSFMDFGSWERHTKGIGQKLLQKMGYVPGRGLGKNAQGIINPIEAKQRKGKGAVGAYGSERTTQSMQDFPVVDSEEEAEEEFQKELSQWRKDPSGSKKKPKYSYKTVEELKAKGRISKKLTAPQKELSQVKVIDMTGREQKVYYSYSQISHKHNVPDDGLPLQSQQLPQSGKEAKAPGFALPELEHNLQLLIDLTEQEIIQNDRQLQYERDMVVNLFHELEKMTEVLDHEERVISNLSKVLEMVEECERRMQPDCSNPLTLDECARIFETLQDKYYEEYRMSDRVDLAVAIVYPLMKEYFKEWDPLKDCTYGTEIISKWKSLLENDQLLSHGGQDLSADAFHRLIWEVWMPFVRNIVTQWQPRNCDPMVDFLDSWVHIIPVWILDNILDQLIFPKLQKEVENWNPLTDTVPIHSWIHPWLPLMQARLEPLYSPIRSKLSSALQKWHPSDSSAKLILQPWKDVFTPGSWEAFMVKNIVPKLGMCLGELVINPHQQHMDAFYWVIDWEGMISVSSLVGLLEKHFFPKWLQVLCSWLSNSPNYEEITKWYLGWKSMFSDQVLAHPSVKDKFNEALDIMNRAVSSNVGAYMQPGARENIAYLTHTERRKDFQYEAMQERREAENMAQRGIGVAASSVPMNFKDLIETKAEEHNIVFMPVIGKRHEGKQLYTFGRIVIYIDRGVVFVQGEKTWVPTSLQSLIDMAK
Description: pull-down; MagneGST Pull-Down System; purified GST-STIP or GST immobilised on glutathione resin at 4 °C overnight; in vitro translated prey (His-USP7, Mdm2 or p53) incubated for 1 h; three washes; WB; only the target purified.
On to “His-USP7 (from UniProt Q93009 1-1102) (enzyme)”, for which the binding result is listed as “binds”.
Same read-out and setting: then “in vitro translated Mdm2 (from UniProt Q00987 1-491) (enzyme)”, with “binds”.
For the substance “in vitro translated p53 (from UniProt P04637 1-393)”, the binding entry is “binds”.

For a further experiment, the target named is T2, Flag-STIP (sip1/tuftelin interacting protein) (human) (UniProt Q9UBB9).
T2 sequence: T1 sequence
In words: co-IP; two-step immunoprecipitation; U2OS cotransfected with Flag-STIP and Mdm2 or p53, 20 uM MG132 4 h; first anti-Flag M2 agarose (wash 150 mM NaCl), elution with Flag peptide in 250 mM NaCl; second anti-Mdm2, anti-p53 or control IgG with protein G-Sepharose; WB.
For “Mdm2 expressed from pCMV-Mdm2 (from UniProt Q00987 1-491) (enzyme)”, the binding entry is recorded as “binds”.
As to “USP7 (ubiquitin-specific protease 7), endogenous (from UniProt Q93009 1-1102) (enzyme)”, the binding result is reported as “binds”.
For the substance “p53 expressed from pCMV-p53 (from UniProt P04637 1-393)”, the binding entry is recorded as “binds”.

For another experiment, the target named is T2, Flag-STIP (sip1/tuftelin interacting protein) (human). In words: co-IP; Flag-STIP transfected into U2OS or H1299 cells; lysate precipitated with anti-Flag antibody or control IgG (1 mg extract, 3 ug antibody, overnight 4 °C, protein G magnetic beads); endogenous partners detected by WB; in Figure 5D also after shRNA knock-down and 20 uM MG132 for 4 h.
As to “Mdm2, endogenous (from UniProt Q00987 1-491) (enzyme)”, the binding entry was “binds”.
Still for that read-out and setting: then “USP7 (ubiquitin-specific protease 7), endogenous (from UniProt Q93009 1-1102) (enzyme)”, with “binds”; and “p53, endogenous (from UniProt P04637 1-393)”, with “binds”.
